Molecules are shown by their SMILES. ≈ marks a conversion by molar mass, not a printed value.

The record followed here is patent EP0207497A2, “Quinolonecarboxylic acid derivative and process for its preparation” (KYORIN PHARMACEUTICAL CO., LTD., priority 1985, dated 1987).

In assay [1] the test system is Pseudomonas aeruginosa V-1. Nature of the assay: Antibacterial spectrum, MIC determination (method of Japan Society of Chemotherapy). The note with it: V1. The class given is cell-based.
In a further assay the test system is P. aeruginosa IFO 12689. Described as above. The class given is cell-based. To be noted: Pseudomonas aeruginosa, IFO12689.

The term MIC denotes the least concentration at which growth counts as inhibited. Low readings indicate inhibition by little substance, high ones a need for much substance. With `O=C(O)c1cn(C2CC2)c2cc(N3CCNCC3)c(F)cc2c1=O` [CPFX, ciprofloxacin, reference compound], the MIC turned out to be 0.05 µg/mL (≈ 0.151 µM) in assay [1] and 0.2 µg/mL (≈ 0.604 µM) in the assay with P. aeruginosa IFO 12689.
